Source: PMC4068158

Chains of the proteins cited; added tags and fusions are not shown. Lines headed by an entry give the natural chain unless they say otherwise; changes in a name come on top. Residues count along the entry.
UniProt O95292: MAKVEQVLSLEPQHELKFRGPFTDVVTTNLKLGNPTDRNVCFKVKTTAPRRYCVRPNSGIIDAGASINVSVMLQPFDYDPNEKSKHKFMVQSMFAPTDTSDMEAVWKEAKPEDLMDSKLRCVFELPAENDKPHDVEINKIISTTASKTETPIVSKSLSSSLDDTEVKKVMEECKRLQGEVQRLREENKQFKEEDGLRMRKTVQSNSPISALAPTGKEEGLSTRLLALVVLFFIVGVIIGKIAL
UniProt Q9UNN5: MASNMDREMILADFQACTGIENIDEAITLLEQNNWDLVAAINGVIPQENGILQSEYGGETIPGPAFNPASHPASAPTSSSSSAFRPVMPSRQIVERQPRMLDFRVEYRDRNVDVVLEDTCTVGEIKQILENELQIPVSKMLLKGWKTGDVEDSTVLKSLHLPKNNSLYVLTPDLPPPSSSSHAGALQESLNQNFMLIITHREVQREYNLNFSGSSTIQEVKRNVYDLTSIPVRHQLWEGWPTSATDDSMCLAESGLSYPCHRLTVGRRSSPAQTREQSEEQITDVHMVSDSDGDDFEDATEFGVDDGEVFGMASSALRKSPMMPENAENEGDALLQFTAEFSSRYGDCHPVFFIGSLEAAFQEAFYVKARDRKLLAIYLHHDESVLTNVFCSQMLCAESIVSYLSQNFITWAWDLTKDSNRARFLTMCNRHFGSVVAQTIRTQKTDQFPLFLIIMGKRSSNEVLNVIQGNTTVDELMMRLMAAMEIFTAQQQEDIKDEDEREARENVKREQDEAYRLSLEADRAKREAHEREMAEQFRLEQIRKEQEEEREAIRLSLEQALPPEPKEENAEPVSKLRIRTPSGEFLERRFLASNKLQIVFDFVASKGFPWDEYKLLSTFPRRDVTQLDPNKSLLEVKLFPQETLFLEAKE
Flag-FAF1 wild type: residues 2-650 of Q9UNN5
UniProt O43681: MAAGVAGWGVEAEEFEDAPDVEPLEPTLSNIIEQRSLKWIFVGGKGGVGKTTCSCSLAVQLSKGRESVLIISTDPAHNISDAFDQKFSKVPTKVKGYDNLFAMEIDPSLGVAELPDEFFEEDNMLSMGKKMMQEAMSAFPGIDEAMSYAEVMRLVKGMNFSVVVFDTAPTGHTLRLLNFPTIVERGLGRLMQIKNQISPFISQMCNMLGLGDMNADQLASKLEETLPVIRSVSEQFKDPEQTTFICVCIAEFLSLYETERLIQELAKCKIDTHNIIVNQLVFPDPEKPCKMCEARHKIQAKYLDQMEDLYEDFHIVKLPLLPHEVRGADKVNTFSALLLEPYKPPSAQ

Assays:
[1] = target: endogenous VAPB (human cells) (human (endogenous in U2OS, HeLa, SH-SY5Y)) (UniProt O95292); test: affinity purification with mass spectrometry; endogenous VAPB immunoprecipitated from HeLa cells; uncoupled Protein A-beads as control
[2] = target: T1, Flag-VAPA wild type (human) (UniProt Q9P0L0); test: affinity purification with mass spectrometry; Flag-VAPA or Flag-VAPB immunoprecipitated with anti-Flag beads from U2OS cells; untransfected cells as control
T1 sequence: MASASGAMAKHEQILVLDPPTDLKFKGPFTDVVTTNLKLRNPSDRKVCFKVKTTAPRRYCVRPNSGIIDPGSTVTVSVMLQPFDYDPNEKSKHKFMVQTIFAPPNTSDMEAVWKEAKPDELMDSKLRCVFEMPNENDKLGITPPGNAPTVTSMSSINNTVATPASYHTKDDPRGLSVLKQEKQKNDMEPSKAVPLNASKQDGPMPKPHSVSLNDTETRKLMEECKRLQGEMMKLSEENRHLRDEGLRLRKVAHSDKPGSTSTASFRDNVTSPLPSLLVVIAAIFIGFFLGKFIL

[3] = target: Flag-VAPB full length wild type (human) (UniProt O95292); test: as above
[4] = target: endogenous VAPB (human cells) (human (endogenous in U2OS, HeLa, SH-SY5Y)) (UniProt O95292); test: affinity purification with mass spectrometry; SILAC; endogenous VAPB immunoprecipitated from mixed light and heavy U2OS lysates, MG132 for 2 or 6 hr against untreated
[5] = target: Flag-FAF1 wild type (human) (UniProt Q9UNN5); test: affinity purification with mass spectrometry; Flag-FAF1 immunoprecipitated with anti-Flag beads from U2OS cells, untreated or MG132 for 2 or 6 hr; untransfected cells as control
[6] = target: Flag-VAPB full length wild type (human) (UniProt O95292); test: affinity purification with mass spectrometry; Flag-VAPA or Flag-VAPB immunoprecipitated with anti-Flag beads from U2OS cells; untransfected cells as control; remark: listed apart in the source
[7] = target: T1, Flag-VAPA wild type (human); test: as above; remark: listed apart in the source

Measured: binding

endogenous FAF1 (human cells) (from UniProt Q9UNN5 1-650)
binds: [1] | [2] | [3]

endogenous ASNA1 (human cells) (from UniProt O43681 1-348)
binds: [1] | [2] | [3] | [4]

B1: endogenous UBL4A (human cells) (protein, UniProt P11441 1-157)
chain: MQLTVKALQGRECSLQVPEDELVSTLKQLVSEKLNVPVRQQRLLFKGKALADGKRLSDYSIGPNSKLNLVVKPLEKVLLEEGEAQRLADSPPPQVWQLISKVLARHFSAADASRVLEQLQRDYERSLSRLTLDDIERLASRFLHPEVTETMEKGFSK
binds: [4] | [5]

B2: endogenous DDOST (human cells) (protein, UniProt P39656 43-456)
chain: SGPRTLVLLDNLNVRETHSLFFRSLKDRGFELTFKTADDPSLSLIKYGEFLYDNLIIFSPSVEDFGGNINVETISAFIDGGGSVLVAASSDIGDPLRELGSECGIEFDEEKTAVIDHHNYDISDLGQHTLIVADTENLLKAPTIVGKSSLNPILFRGVGMVADPDNPLVLDILTGSSTSYSFFPDKPITQYPHAVGKNTLLIAGLQARNNARVIFSGSLDFFSDSFFNSAVQKAAPGSQRYSQTGNYELAVALSRWVFKEEGVLRVGPVSHHRVGETAPPNAYTVTDLVEYSIVIQQLSNGKWVPFDGDDIQLEFVRIDPFVRTFLKKKGGKYSVQFKLPDVYGVFQFKVDYNRLGYTHLYSSTQVSVRPLQHTQYERFIPSAYPYYASAFSMMLGLFIFSIVFLHMKEKEKSD
binds: [6] | [4] | [5]

B3: endogenous RAB3GAP2 (human cells) (protein, UniProt Q9H2M9 1-1393)
chain: MACSIVQFCYFQDLQAARDFLFPHLREEILSGALRRDPSKSTDWEDDGWGAWEENEPQEPEEEGNTCKTQKTSWLQDCVLSLSPTNDLMVIAREQKAVFLVPKWKYSDKGKEEMQFAVGWSGSLNVEEGECVTSALCIPLASQKRSSTGRPDWTCIVVGFTSGYVRFYTENGVLLLAQLLNEDPVLQLKCRTYEIPRHPGVTEQNEELSILYPAAIVTIDGFSLFQSLRACRNQVAKAAASGNENIQPPPLAYKKWGLQDIDTIIDHASVGIMTLSPFDQMKTASNIGGFNAAIKNSPPAMSQYITVGSNPFTGFFYALEGSTQPLLSHVALAVASKLTSALFNAASGWLGWKSKHEEEAVQKQKPKVEPATPLAVRFGLPDSRRHGESICLSPCNTLAAVTDDFGRVILLDVARGIAIRMWKGYRDAQIGWIQTVEDLHERVPEKADFSPFGNSQGPSRVAQFLVIYAPRRGILEVWSTQQGPRVGAFNVGKHCRLLYPGYKIMGLNNVTSQSWQPQTYQICLVDPVSGSVKTVNVPFHLALSDKKSERAKDMHLVKKLAALLKTKSPNLDLVETEIKELILDIKYPATKKQALESILASERLPFSCLRNITQTLMDTLKSQELESVDEGLLQFCANKLKLLQLYESVSQLNSLDFHLDTPFSDNDLALLLRLDEKELLKLQALLEKYKQENTRTNVRFSDDKDGVLPVKTFLEYLEYEKDVLNIKKISEEEYVALGSFFFWKCLHGESSTEDMCHTLESAGLSPQLLLSLLLSVWLSKEKDILDKPQSICCLHTMLSLLSKMKVAIDETWDSQSVSPWWQQMRTACIQSENNGAALLSAHVGHSVAAQISNNMTEKKFSQTVLGADSEALTDSWEALSLDTEYWKLLLKQLEDCLILQTLLHSKGNTQTSKVSSLQAEPLPRLSVKKLLEGGKGGIADSVAKWIFKQDFSPEVLKLANEERDAENPDEPKEGVNRSFLEVSEMEMDLGAIPDLLHLAYEQFPCSLELDVLHAHCCWEYVVQWNKDPEEARFFVRSIEHLKQIFNAHVQNGIALMMWNTFLVKRFSAATYLMDKVGKSPKDRLCRRDVGMSDTAMTSFLGSCLDLLQILMEADVSRDEIQVPVLDTEDAWLSVEGPISIVELALEQKHIHYPLVEHHSILCSILYAVMRFSLKTVKPLSLFDSKGKNAFFKDLTSIQLLPSGEMDPNFISVRQQFLLKVVSAAVQAQHSATKVKDPTEEATPTPFGKDQDWPALAVDLAHHLQVSEDVVRRHYVGELYNYGVDHLGEEAILQVHDKEVLASQLLVLTGQRLAHALLHTQTKEGMELLARLPPTLCTWLKAMDPQDLQNTEVPIATTAKLVNKVIELLPEKHGQYGLALHLIEAVEAISLPSL
binds: [1] | [7] | [6]

B4: endogenous RAB3GAP1 (human cells) (protein, UniProt Q15042 1-981)
chain: MAADSEPESEVFEITDFTTASEWERFISKVEEVLNDWKLIGNSLGKPLEKGIFTSGTWEEKSDEISFADFKFSVTHHYLVQESTDKEGKDELLEDVVPQSMQDLLGMNNDFPPRAHCLVRWYGLREFVVIAPAAHSDAVLSESKCNLLLSSVSIALGNTGCQVPLFVQIHHKWRRMYVGECQGPGVRTDFEMVHLRKVPNQYTHLSGLLDIFKSKIGCPLTPLPPVSIAIRFTYVLQDWQQYFWPQQPPDIDALVGGEVGGLEFGKLPFGACEDPISELHLATTWPHLTEGIIVDNDVYSDLDPIQAPHWSVRVRKAENPQCLLGDFVTEFFKICRRKESTDEILGRSAFEEEGKETADITHALSKLTEPASVPIHKLSVSNMVHTAKKKIRKHRGVEESPLNNDVLNTILLFLFPDAVSEKPLDGTTSTDNNNPPSESEDYNLYNQFKSAPSDSLTYKLALCLCMINFYHGGLKGVAHLWQEFVLEMRFRWENNFLIPGLASGPPDLRCCLLHQKLQMLNCCIERKKARDEGKKTSASDVTNIYPGDAGKAGDQLVPDNLKETDKEKGEVGKSWDSWSDSEEEFFECLSDTEELKGNGQESGKKGGPKEMANLRPEGRLYQHGKLTLLHNGEPLYIPVTQEPAPMTEDLLEEQSEVLAKLGTSAEGAHLRARMQSACLLSDMESFKAANPGCSLEDFVRWYSPRDYIEEEVIDEKGNVVLKGELSARMKIPSNMWVEAWETAKPIPARRQRRLFDDTREAEKVLHYLAIQKPADLARHLLPCVIHAAVLKVKEEESLENISSVKKIIKQIISHSSKVLHFPNPEDKKLEEIIHQITNVEALIARARSLKAKFGTEKCEQEEEKEDLERFVSCLLEQPEVLVTGAGRGHAGRIIHKLFVNAQRAAAMTPPEEELKRMGSPEERRQNSVSDFPPPAGREFILRTTVPRPAPYSKALPQRMYSVLTKEDFRLAGAFSSDTSFF
binds: [1] | [7] | [6]

Like-named read-outs stand apart in the source and are kept apart here. Results are given in words; binding and its absence hold for the method and conditions named. Binding seen in cells or lysates may run through a third protein. Here binding means that the protein was enriched with, or labelled near, the bait; the list need not be complete. For part of these data: Sequences can lack the tags named with a protein.
